# Laboratory results as given in paper PMC4826181.
# Sequences of proteins named here, by UniProt entry; tags and fusion partners are left off. A change or cut given only in a name is not applied to a line headed by its entry.
# UniProt Q9P126: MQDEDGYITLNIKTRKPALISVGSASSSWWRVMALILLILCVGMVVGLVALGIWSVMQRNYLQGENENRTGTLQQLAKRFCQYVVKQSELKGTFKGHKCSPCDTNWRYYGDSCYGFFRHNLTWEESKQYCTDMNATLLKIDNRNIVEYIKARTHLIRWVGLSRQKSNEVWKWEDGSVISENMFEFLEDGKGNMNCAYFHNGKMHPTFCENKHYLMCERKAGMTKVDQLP
# Numbering of substitutions follows the chain as printed. These are yes or no findings as the source states them, for the method shown. Binding can be weak; no strength is given. For some of these results: Tags and fused reporters may be left off the sequences shown.
# Columns and labels:
# [1] = target: T1, human podoplanin point mutant PDPN-D48A, on CHO cells (human) (UniProt Q86YL7); assay: flow cytometry on cells; CHO cells stably expressing podoplanin WT or mutants incubated with 0.4 μg/mL CLEC-2-(His)10, then Alexa Flour 488-conjugated anti-penta-His antibody; peak values normalised to PDPN-WT/CHO; only the binder purified
# T1 sequence: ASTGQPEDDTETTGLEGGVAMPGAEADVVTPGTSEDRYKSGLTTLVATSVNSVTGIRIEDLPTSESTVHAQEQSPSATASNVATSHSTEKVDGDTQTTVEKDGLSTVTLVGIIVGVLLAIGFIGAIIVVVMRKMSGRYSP
# [2] = target: T2, human podoplanin double point mutant PDPN-D48A/D82A, on CHO cells (human) (UniProt Q86YL7); assay: as above
# T2 sequence: T1 sequence with D60A
# [3] = target: T3, human podoplanin point mutant PDPN-D82A, on CHO cells (human) (UniProt Q86YL7); assay: as above
# T3 sequence: T1 sequence with A26D, D60A
# [4] = target: T4, human podoplanin PLAG1-deletion mutant PDPN-Δ29–34, on CHO cells (human) (UniProt Q86YL7); assay: as above
# T4 sequence: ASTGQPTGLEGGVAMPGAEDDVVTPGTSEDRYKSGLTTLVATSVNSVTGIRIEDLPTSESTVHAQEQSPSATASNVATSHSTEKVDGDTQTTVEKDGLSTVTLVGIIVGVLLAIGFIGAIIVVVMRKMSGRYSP
# [5] = target: T5, human podoplanin, wild type (PDPN-WT), expressed on CHO cells (human) (UniProt Q86YL7); assay: as above
# T5 sequence: T1 sequence with A26D
# [6] = target: T6, human podoplanin PLAG3-deletion mutant PDPN-Δ47–52, on CHO cells (human) (UniProt Q86YL7); assay: as above
# T6 sequence: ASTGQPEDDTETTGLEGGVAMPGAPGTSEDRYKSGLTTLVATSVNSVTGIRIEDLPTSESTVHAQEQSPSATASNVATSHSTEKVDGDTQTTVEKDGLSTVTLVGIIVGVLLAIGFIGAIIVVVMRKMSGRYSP
# [7] = target: T7, human podoplanin PLAG4-deletion mutant PDPN-Δ81–85, on CHO cells (human) (UniProt Q86YL7); assay: as above
# T7 sequence: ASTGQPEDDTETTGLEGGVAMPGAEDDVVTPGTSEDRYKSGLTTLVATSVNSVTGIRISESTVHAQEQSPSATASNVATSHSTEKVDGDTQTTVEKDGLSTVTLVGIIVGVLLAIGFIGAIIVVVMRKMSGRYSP
# [8] = target: T1, human podoplanin point mutant PDPN-D48A, on CHO cells (human); assay: flow cytometry on cells; competition: CHO/PDPN-WT or CHO/PDPN-D48A cells incubated with control IgG or anti-podoplanin mAbs (up to 100 μg/mL), then 0.4 μg/mL CLEC-2-(His)10, then Alexa Flour 488-conjugated anti-penta-His antibody; only the binder purified
# [9] = target: T5, human podoplanin, wild type (PDPN-WT), expressed on CHO cells (human); assay: as above
# [10] = target: T8, recombinant human podoplanin-Fc protein (human) (UniProt Q86YL7); assay: AlphaScreen or HTRF; Podoplanin-Fc (1 ng/well) first incubated with control or anti-podoplanin antibodies in a 96-well plate, then CLEC-2-(His)10 (30 ng/well); Nickel Chelate Donor beads and Protein A Acceptor beads; 30 min at RT; no IgG control taken as 100%; both purified
# T8 sequence: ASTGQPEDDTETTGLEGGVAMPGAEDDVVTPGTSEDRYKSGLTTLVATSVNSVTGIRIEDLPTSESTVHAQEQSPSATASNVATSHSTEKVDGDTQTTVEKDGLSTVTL
substance,measurement,setting,value
(His)10-tagged human CLEC-2 protein (from UniProt Q9P126) (receptor),binding,[1],binds
same,binding,[2],binds weakly
same,binding,[3],binds
same,binding,[4],binds
same,binding,[5],binds
same,binding,[6],binds
same,binding,[7],binds
same,binding,[8],binds
same,binding,[9],binds
same,binding,[10],binds
